Laboratory results published in US4301065A (Agence Nationale de Valorisation de la Recherche (ANVAR), priority 1977, dated 1981).

test: general procedure: solution-phase peptide synthesis; isobutyl chlorocarbonate/NMM (mixed anhydride); PyroGlu-OTcp and BOC-Gln-ONp act; settings: coupling step, acetate

| Substance | step yield |
| --- | --- |
| BOC (Gln-Ala-Lys(BOC)-Ser(But)-Gln-Gly-Gly-Ser(But)-Asn OBut | 78% |
| PyroGlu-Ala-Lys(BOC)-Ser(But)-Gln(Mbh)-Gly-Gly-Ser(But)-Asn-OBut | 70% |
| PyroGlu-Ala-Lys(BOC)-Ser(But)-Gln-Gly-Gly-Ser(But)-Asp-di.OBut | 65% |
| PyroGlu-D.Ala-Lys(BOC)-Ser(But)-Gln(Mbh)-Gly-Gly-Ser(But)-Asn.OBut | 70% |
| PyroGlu-Lys(BOC)-Ser(But)-Gln-Gly-Gly-Ser(But)-Asn OBut | 57% |
| PyroGlu-Lys(BOC)-Ser(But)-Gln-Gly-Gly-Ser(But).OBut | 70% |
| Z-Ala-Lys(BOC)-Ser(But)-Gln-Gly Gly-Ser(But)-Asp-di.OBut | 75% |
| Z-Ala-Lys(BOC)-Ser(But)-Gln-Gly-Gly-Ser(But)-Asn OBut | 64% |
| Z.Ala-Lys(BOC)-Ser(But)-Gln-Gly-Gly.OMe | 80% |
| Z.D-Ala-Lys(BOC)-Ser(But) Gln(Mbh)-Gly-Gly-Ser(But)-Asn.OBut | 85% |
| Z.Gln(Mbh)-Ala-Lys(BOC)-Ser(But)-Gln(Mbh)-Gly-Gly-Ser(But)-Asn.OBut | 50% |
| Z.Lys(BOC)-Ser(But)-Gln(Mbh)-Gly-Gly-Ser(But)-Asn.OBut | 90% |
| Z.Lys(BOC)-Ser(But)-Gln-Gly-Gly.OMe | 75% |
| Z.Ser(But)-Gln(Mbh)-Gly-Gly-Ser(But)-Asn.OBut | 87% |
| Z.Ser(But)-Gln(Mbh)-Gly-Gly.OMe | 85% |
| Z.Ser(But)-Gln-Gly-Gly.OMe | 75% |

same assay, conditions: late stage modification step, acetate

| Substance | step yield |
| --- | --- |
| Ala-Lys(BOC)-Ser(But)-Gln(Pbh)-Gly-Gly-Ser(But)-Asn.OBut | 90% |
| Lys(BOC)-Ser(But)-Gln(Mbh)-Gly-Gly-Ser(But)-Asn.OBut | 90% |
| PEPTIDE1{[pE].A.K.S.Q.G.G.S.N}$$$$V2.0 | from 80 to 90% |
| Ser(But)-Gln(Mbh)-Gly-Gly-Ser(But)-Asn.OBut | 90% |
| Z.Ser(But)-Gln(Mbh)-Gly-Gly.OH | 85% |

Strings that start with PEPTIDE1 are HELM notation: dots part the residues, brackets hold end groups and non-standard residues.
